Reference: PubChem BioAssay AID1159578 (Peter MacCallum Cancer Centre, 2015)
In all, the deposit lists about 18,000 reagents; below is a random part of them. About 1,030 of them (5.7%) count as active. 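Inactive calls also include pools with fewer than 3300 nuclei, whose migration was not assessed.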 The raw values are shown without normalisation.

Test: 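Knock-downs that alter how fast lymphatic endothelial cells migrate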 (primary screen)
Cells: human lymphatic endothelial cells
Knock-down reagent: siRNA pool against human genes, 40 nM
Duration: 48 h after transfection
Measured: 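High-content imaging of dye-stained cells in a scratch assay measures filled wound area and nuclei per well; duplicate means given as ratio to mock and robust z-score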
Reading the numbers: migration robust z-score: higher = faster migration into the scratch; migration relative to mock: higher = more scratch area covered than mock; nuclei per well: higher = more cells in the well
Active means: 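Pools averaging fewer than 3300 nuclei are never called; remaining pools count as changed when migration robust z lies outside -2 to 2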
Calls: active = migration changed; inactive = no migration change, or too few cells

target | migration robust z-score | migration class with cell-count check | migration relative to mock | nuclei per well, duplicate mean | Outcome
B4GALNT2 | -2.24 | migration z below -2; enough cells | 0.38 | 5457 | active
MON1B (MON1 vesicular trafficking associated B) | -0.41 | migration z between -2 and 2; enough cells | 0.78 | 5920 | inactive
URB2 (URB2 ribosome biogenesis homolog) | -0.36 | migration z between -2 and 2; enough cells | 0.74 | 5144 | inactive
WWP1 (WW domain containing E3 ubiquitin protein ligase 1) | -0.21 | migration z between -2 and 2; enough cells | 0.76 | 5626 | inactive
BNIPL (BCL2 interacting protein like) | -0.44 | migration z between -2 and 2; enough cells | 0.77 | 6452 | inactive
DOCK2 (dedicator of cytokinesis 2) | 0.7 | migration z between -2 and 2; enough cells | 1.06 | 6337 | inactive
ASPRV1 (aspartic peptidase retroviral like 1) | 1.06 | migration z between -2 and 2; enough cells | 1.01 | 5432 | inactive
COL15A1 (collagen type XV alpha 1 chain) | -0.25 | migration z between -2 and 2; enough cells | 0.82 | 5108 | inactive
MSMB (microseminoprotein beta) | -0.29 | migration z between -2 and 2; enough cells | 0.81 | 5662 | inactive
CCDC198 (coiled-coil domain containing 198) | 1.14 | migration z between -2 and 2; enough cells | 1.18 | 5492 | inactive
SLC17A5 | 0.34 | migration z between -2 and 2; enough cells | 0.87 | 6288 | inactive
TRIB2 (tribbles pseudokinase 2) | -5.55 | under 3300 nuclei; migration not judged | -0.26 | 1421 | inactive
CPO (carboxypeptidase O) | 0.16 | migration z between -2 and 2; enough cells | 0.83 | 5511 | inactive
DYRK2 (dual specificity tyrosine phosphorylation regulated kinase 2) | -0.64 | migration z between -2 and 2; enough cells | 0.68 | 3747 | inactive
USP35 (ubiquitin specific peptidase 35) | 1.17 | migration z between -2 and 2; enough cells | 1.03 | 4470 | inactive
SLC35G2 | -0.57 | migration z between -2 and 2; enough cells | 0.73 | 5162 | inactive
TMEM18 (transmembrane protein 18) | 0.19 | migration z between -2 and 2; enough cells | 0.93 | 7414 | inactive
TBC1D3B (TBC1 domain family member 3B) | 0.53 | migration z between -2 and 2; enough cells | 1.03 | 7352 | inactive
UCN3 (urocortin 3) | -0.82 | migration z between -2 and 2; enough cells | 0.68 | 5502 | inactive
EEF2KMT (eukaryotic elongation factor 2 lysine methyltransferase) | -1.27 | migration z between -2 and 2; enough cells | 0.56 | 5421 | inactive
KRT39 (keratin 39) | 0.26 | migration z between -2 and 2; enough cells | 0.96 | 5606 | inactive
ADAR (adenosine deaminase RNA specific) | -1.22 | migration z between -2 and 2; enough cells | 0.57 | 5470 | inactive
CCDC8 (coiled-coil domain containing 8 subunit of 3M complex) | -0.3 | migration z between -2 and 2; enough cells | 0.81 | 5691 | inactive
OR4S2 (olfactory receptor family 4 subfamily S member 2) | 0.05 | migration z between -2 and 2; enough cells | 0.9 | 3974 | inactive
HVCN1 (hydrogen voltage gated channel 1) | 0.46 | migration z between -2 and 2; enough cells | 0.9 | 5552 | inactive
MTHFD1L | -0.65 | migration z between -2 and 2; enough cells | 0.68 | 6390 | inactive
IPO7 (importin 7) | -1.01 | migration z between -2 and 2; enough cells | 0.61 | 7086 | inactive
ALOX5 (arachidonate 5-lipoxygenase) | 0.88 | migration z between -2 and 2; enough cells | 0.98 | 5214 | inactive
UAP1 (UDP-N-acetylglucosamine pyrophosphorylase 1) | 0.26 | migration z between -2 and 2; enough cells | 0.86 | 5635 | inactive

Part of the list above, limited to “migration class with cell-count check”:
ASPRV1 (aspartic peptidase retroviral like 1) = migration z between -2 and 2; enough cells
COL15A1 (collagen type XV alpha 1 chain) = migration z between -2 and 2; enough cells
MSMB (microseminoprotein beta) = migration z between -2 and 2; enough cells
CCDC198 (coiled-coil domain containing 198) = migration z between -2 and 2; enough cells
SLC17A5 = migration z between -2 and 2; enough cells

More records:
target | migration robust z-score | migration class with cell-count check | migration relative to mock | nuclei per well, duplicate mean | Outcome
HELT (helt bHLH transcription factor) | -0.02 | migration z between -2 and 2; enough cells | 0.88 | 5096 | inactive
NMNAT1 (nicotinamide nucleotide adenylyltransferase 1) | -0.18 | migration z between -2 and 2; enough cells | 0.77 | 5936 | inactive
ZNF428 (zinc finger protein 428) | 1.5 | migration z between -2 and 2; enough cells | 1.27 | 7174 | inactive
RAD50 (RAD50 double strand break repair protein) | 1.19 | migration z between -2 and 2; enough cells | 1.04 | 6792 | inactive
PCDHGA7 (protocadherin gamma subfamily A, 7) | -0.66 | migration z between -2 and 2; enough cells | 0.72 | 5594 | inactive
IGFALS | -0.9 | migration z between -2 and 2; enough cells | 0.65 | 5904 | inactive
GLUL (glutamate-ammonia ligase) | -0.08 | migration z between -2 and 2; enough cells | 0.79 | 5409 | inactive
TWF1 (twinfilin actin binding protein 1) | 0.93 | migration z between -2 and 2; enough cells | 0.98 | 6119 | inactive
TYROBP (transmembrane immune signaling adaptor TYROBP) | 0.44 | migration z between -2 and 2; enough cells | 1 | 6924 | inactive
ECD (ecdysoneless cell cycle regulator) | 0.38 | migration z between -2 and 2; enough cells | 0.98 | 7107 | inactive
HPRT1 (hypoxanthine phosphoribosyltransferase 1) | 0.34 | migration z between -2 and 2; enough cells | 0.87 | 5224 | inactive
KCNH7 (potassium voltage-gated channel subfamily H member 7) | -0.94 | migration z between -2 and 2; enough cells | 0.62 | 6548 | inactive
UTP11 (UTP11 small subunit processome component) | -0.66 | migration z between -2 and 2; enough cells | 0.72 | 5978 | inactive
ASS1 (argininosuccinate synthase 1) | -1.03 | migration z between -2 and 2; enough cells | 0.6 | 5742 | inactive
MDFIC (MyoD family inhibitor domain containing) | -1.19 | migration z between -2 and 2; enough cells | 0.57 | 6136 | inactive
ZNF823 (zinc finger protein 823) | 1.17 | migration z between -2 and 2; enough cells | 1.19 | 6470 | inactive
EXOC8 (exocyst complex component 8) | 0.1 | migration z between -2 and 2; enough cells | 0.91 | 5634 | inactive
LYZL4 (lysozyme like 4) | -1.15 | migration z between -2 and 2; enough cells | 0.58 | 4255 | inactive
CDK5RAP1 (CDK5RAP1 mitochondrial tRNA methylthiotransferase) | 0.16 | migration z between -2 and 2; enough cells | 0.84 | 5167 | inactive
TM9SF2 (transmembrane 9 superfamily member 2) | -0.8 | migration z between -2 and 2; enough cells | 0.68 | 6762 | inactive
ENO1 (enolase 1) | 0.06 | migration z between -2 and 2; enough cells | 0.82 | 6053 | inactive
SH3KBP1 (SH3 domain containing kinase binding protein 1) | 1.21 | migration z between -2 and 2; enough cells | 1.2 | 5572 | inactive
STYXL2 (serine/threonine/tyrosine interacting like 2) | -0.65 | migration z between -2 and 2; enough cells | 0.72 | 6501 | inactive
FANCB (FA complementation group B) | 0.86 | migration z between -2 and 2; enough cells | 1.11 | 5490 | inactive
TLCD3B (TLC domain containing 3B) | -0.03 | migration z between -2 and 2; enough cells | 0.88 | 5431 | inactive
ITFG1 (integrin alpha FG-GAP repeat containing 1) | 0.83 | migration z between -2 and 2; enough cells | 1.1 | 5636 | inactive
ARHGAP35 (Rho GTPase activating protein 35) | 1.22 | migration z between -2 and 2; enough cells | 1.04 | 5887 | inactive
POLR2H (RNA polymerase II, I and III subunit H) | -0.2 | migration z between -2 and 2; enough cells | 0.76 | 5064 | inactive
